Reference: the supplement of paper PMC11060735
Values joined by “and” are separate entries in the source; they are usually repeats but may differ in a detail not shown here. Equal entries are not always repeated. Structures can show the parent of a compound that is named as a salt. ± gives the standard deviation of the averaged measurements. Whole data set: some 1,800 compounds, median “GFP- (p16Ink4a-) cell count relative to negative-control wells” near 0.99, cut for the lowest 2% near 0.5. This is one part of the list.

System: mouse p16Ink4a+/- lung fibroblasts (INKBRITE, bleomycin-injured)
Assay: GFP- (p16Ink4a-) cell count relative to negative-control wells (fold of vehicle); higher = more p16Ink4a- cells surviving
Conditions: 1 µM; 3 days

SMILES | GFP-
N[C@H]1C[C@@H]1c1ccc(-c2cccc(O)c2)cc1 | 1.01 ± 0.044
Nc1ncnc2c1ncn2[C@@H]1O[C@H](CO)[C@@H](O)[C@H]1O [Adenosine] | 1.01
CS(=O)(=O)c1ccc([C@@H](O)[C@@H](CF)NC(=O)C(Cl)Cl)cc1 [Florfenicol] | 0.943
c1ccc2c(CC3=NCCN3)cccc2c1 [Naphazoline] | 1.1
CN[C@@H]1[C@H](O)[C@H](NC)[C@H]2O[C@@]3(O)C(=O)C[C@@H](C)O[C@H]3O[C@@H]2[C@H]1O [Spectinomycin] | 1.11
CN1CCOC(c2ccccc2)c2ccccc2C1 (stereo not given) [Nefopam] | 1.1
COC(=O)Nc1nc2cc(S(=O)c3ccccc3)ccc2[nH]1 (stereo not given) [Oxfendazole] | 1.02
OCc1c[nH]c2ccccc12 [Indole-3-carbinol] | 0.967
CCC(C)(C)C(=O)O[C@H]1C[C@@H](C)C=C2C=C[C@H](C)[C@H](CC[C@@H]3C[C@@H](O)CC(=O)O3)[C@H]21 [Simvastatin] | 0.565
O=C(O)c1cccnc1 [Niacin] | 1.06
Cc1ccc(F)c(NC(=O)Nc2ccc(-c3cccc4[nH]nc(N)c34)cc2)c1 [Linifanib] | 0.965
Cc1nc(O)c2cc(CN(C)c3ccc(C(=O)N[C@@H](CCC(=O)O)C(=O)O)s3)ccc2n1 [Raltitrexed] | 1.01
CN(C)CCC(c1ccc(Cl)cc1)c1ccccn1 (stereo not given) [Chlorphenamine] | 1.04
CC(=O)NS(=O)(=O)c1ccc(N)cc1 [Sulfacetamide] | 0.929
CC[C@H]1OC(=O)C[C@@H](O)[C@H](C)[C@@H](O[C@@H]2O[C@H](C)[C@@H](O)[C@H](N(C)C)[C@H]2O)[C@@H](CCN2C[C@H](C)C[C@H](C)C2)C[C@@H](C)C(=O)/C=C/C(C)=C/[C@@H]1CO[C@@H]1O[C@H](C)[C@@H](O)[C@@H](OC)[C@H]1OC [Tilmicosin] | 0.931
COC(=O)Nc1nc2cc(C(=O)c3cccs3)ccc2[nH]1 [Nocodazole] | 0.555
CC1=C(C(=O)OC2CCCCC2)C(c2ccc([N+](=O)[O-])cc2)C2=C(O)CC(C)(C)CC2=N1 (stereo not given) | 0.82
CC1CC(OC(=O)C(O)c2ccccc2)CC(C)(C)C1 (stereo not given) [Cyclandelate] | 1.2
CCN(CC)CC(=O)Nc1c(C)cccc1C [Lidocaine] | 1.01
CC(CNC(=O)c1cccnc1)NC(=O)c1cccnc1 (stereo not given) [Nicaraven] | 1.16
CC(C)NCC(O)c1ccc(NS(C)(=O)=O)cc1 (stereo not given) [Sotalol] | 1.13
c1ccc(CC2=NCCN2)cc1 [Tolazoline, Priscoline] | 1.04
O=C(O)c1cccnc1Nc1cccc(C(F)(F)F)c1 [Niflumic Acid] | 1.04
CC1(C)S[C@@H]2[C@H](NC(=O)[C@H](N)c3ccccc3)C(=O)N2[C@H]1C(=O)O [Ampicillin] | 1.02 and 1.05
O=C(NCc1cccc(O)c1)Nc1nc(-c2ccncc2)cs1 | 1.17
CC(=O)N1CCN(CCOc2ccc(C3CCN(C4=Nn5c(nnc5C(F)(F)F)CC4)CC3)cc2)CC1 | 1.03
CCCOc1ccc(C(=O)OCCN(CC)CC)cc1N [Proparacaine] | 1.12
C[N+](C)(C)CC(O)CC(=O)O (stereo not drawn) [Carnitine Hydrochloride, Carnitine (dl) Hydrochloride] | 1.1

3 compounds already listed, arranged by SMILES length, smallest number first.
SMILES | GFP-
Cc1nc(O)c2cc(CN(C)c3ccc(C(=O)N[C@@H](CCC(=O)O)C(=O)O)s3)ccc2n1 [Raltitrexed] | 1.01
CCC(C)(C)C(=O)O[C@H]1C[C@@H](C)C=C2C=C[C@H](C)[C@H](CC[C@@H]3C[C@@H](O)CC(=O)O3)[C@H]21 [Simvastatin] | 0.565
CC[C@H]1OC(=O)C[C@@H](O)[C@H](C)[C@@H](O[C@@H]2O[C@H](C)[C@@H](O)[C@H](N(C)C)[C@H]2O)[C@@H](CCN2C[C@H](C)C[C@H](C)C2)C[C@@H](C)C(=O)/C=C/C(C)=C/[C@@H]1CO[C@@H]1O[C@H](C)[C@@H](O)[C@@H](OC)[C@H]1OC [Tilmicosin] | 0.931

Later entries

SMILES | GFP-
O=C(CCCN1CC=C(n2c(O)nc3ccccc32)CC1)c1ccc(F)cc1 [Droperidol] | 1.01
C[C@@H](Oc1cc(-n2cnc3ccc(CN4CCN(C)CC4)cc32)sc1C(N)=O)c1ccccc1C(F)(F)F | 0.767
Cc1ccc(S(=O)(=O)n2c(N)nc3ccccc32)cc1 [Nodinitib-1] | 0.996
C[C@]12CC[C@@H]3c4ccc(O)cc4CC[C@H]3[C@@H]1CC[C@@H]2O [Estradiol] | 1.04
Clc1ccc(CSC(Cn2ccnc2)c2ccc(Cl)cc2Cl)cc1 (stereo not given) [Sulconazole] | 1.03
COc1cc2nccc(Oc3ccc(NC(=O)C4(C(=O)Nc5ccc(F)cc5)CC4)cc3)c2cc1OC [Cabozantinib] | 0.824
OCCOCCN1CCN(C(c2ccccc2)c2ccc(Cl)cc2)CC1 (stereo not given) [Hydroxyzine] | 0.883
Cc1cc(Nc2cc(N3CCN(C)CC3)nc(Sc3ccc(NC(=O)C4CC4)cc3)n2)n[nH]1 | 0.706 ± 0.081
O=C(Nc1cc(C(F)(F)F)cc(C(F)(F)F)c1)c1cc(Cl)ccc1O | 1.16
C=CCc1cccc(/C=N/NC(=O)CN2CCN(Cc3ccccc3)CC2)c1O | 0.654
COc1cc2nccc(Oc3ccc(NC(=O)NC4CC4)c(Cl)c3)c2cc1C(N)=O [Lenvatinib] | 0.982
Nc1ccc(S(N)(=O)=O)cc1 [Sulfanilamide] | 0.957
CCc1nc(-c2cccc(C)c2)c(-c2ccnc(NC(=O)c3ccccc3)c2)s1 | 0.996
CN1CCCC(n2nc(Cc3ccc(Cl)cc3)c3ccccc3c2=O)CC1 (stereo not given) [Azelastine, Azelastine Hydrochloride] | 1
NC(=O)OCC(COC(N)=O)c1ccccc1 [Felbamate] | 1.08
CC(C)(Oc1ccc(C2CC2(Cl)Cl)cc1)C(=O)O (stereo not given) [Ciprofibrate] | 0.748
Nc1ccc(S(=O)(=O)Nc2nccs2)cc1 [Sulfathiazole] | 0.866
Oc1ccc([C@H]2COc3cc(O)ccc3C2)cc1 [Equol] | 1.06
COc1ccc([C@@H]2Sc3ccccc3N(CCN(C)C)C(=O)[C@@H]2OC(C)=O)cc1 [Diltiazem] | 1.04
COc1ccc2[nH]cc(CCNC(C)=O)c2c1 [Melatonin] | 1.3
Clc1ccc(C(Cn2ccnc2)OCc2ccsc2Cl)c(Cl)c1 (stereo not given) [Tioconazole] | 0.993
CSc1nc2cc(Cl)c(Oc3cccc(Cl)c3Cl)cc2[nH]1 [Triclabendazole] | 0.963
O=C(Oc1cc(S(=O)(=O)c2ccccc2)ccc1[N+](=O)[O-])c1ccc(Cl)cc1 | 0.709
Cc1cc(C2CCCCC2)n(O)c(=O)c1 [Ciclopirox] | 0.699 and 0.754
NC(=O)c1cnccn1 [Pyrazinamide] | 1.08
Cc1ccccc1C(OCCN(C)C)c1ccccc1 (stereo not given) [Orphenadrine] | 1.11
Nc1nc(N)c(N=O)c(OCC2CCCCC2)n1 | 1.07
